Laboratory results as given in patent US20200054011A1, “QUINAZOLINEDIONE-6-CARBONYL DERIVATIVES AND THEIR USE AS HERBICIDES” (Bayer CropScience Aktiengesellschaft, priority 2018, published 2020).
Some results were stated once for a whole list of compounds, not compound by compound.

Assays:
Assay type in all cases: in vivo
Setaria viridis = assay: Pre-emergence herbicidal action against harmful plants; conditions: application rate of 0.32 kg or less per hectare, scored visually after 3 weeks, 100% = plants have died, 0% = like control plants
Matricaria inodora = assay: as above; conditions: application rate of 0.32 kg or less per hectare, scored visually after 3 weeks, 100% = plants have died, 0% = like control plants
Abuthilon theophrasti = assay: Post-emergence herbicidal action against harmful plants; conditions: application rate of 0.08 kg or less per hectare, assessed visually after about 3 weeks, 100% = plants have died, 0% = like control plants
Amaranthus retroflexus = assay: as above; conditions: application rate of 0.08 kg or less per hectare, assessed visually after about 3 weeks, 100% = plants have died, 0% = like control plants

CCc1ccccc1-n1c(=O)c2c(C)c(C(=O)c3cnn(C)c3O)ccc2n(C)c1=O [1-5]
at least 80%: efficacy (herbicidal activity in percent) against Setaria viridis (Setaria viridis) | efficacy (herbicidal activity in percent) against Matricaria inodora (Matricaria inodora) | efficacy (herbicidal action in percent) against Abuthilon theophrasti (Abuthilon theophrasti) | efficacy (herbicidal action in percent) against Amaranthus retroflexus (Amaranthus retroflexus)
